Experimental data: publication PMC8486662
Residue numbers refer to the chain shown, from its start. In names and notes the source's numbering stands. These are yes or no findings as the source states them, for the method shown. In cells and extracts the contact can be indirect. Some binding calls cover weakened binding; strength is not graded here. For some of these results: Where a sequence is shown, tags or fusion partners need not be part of it.

Chains of the proteins cited; added tags and fusions are not shown.
UniProt P35222: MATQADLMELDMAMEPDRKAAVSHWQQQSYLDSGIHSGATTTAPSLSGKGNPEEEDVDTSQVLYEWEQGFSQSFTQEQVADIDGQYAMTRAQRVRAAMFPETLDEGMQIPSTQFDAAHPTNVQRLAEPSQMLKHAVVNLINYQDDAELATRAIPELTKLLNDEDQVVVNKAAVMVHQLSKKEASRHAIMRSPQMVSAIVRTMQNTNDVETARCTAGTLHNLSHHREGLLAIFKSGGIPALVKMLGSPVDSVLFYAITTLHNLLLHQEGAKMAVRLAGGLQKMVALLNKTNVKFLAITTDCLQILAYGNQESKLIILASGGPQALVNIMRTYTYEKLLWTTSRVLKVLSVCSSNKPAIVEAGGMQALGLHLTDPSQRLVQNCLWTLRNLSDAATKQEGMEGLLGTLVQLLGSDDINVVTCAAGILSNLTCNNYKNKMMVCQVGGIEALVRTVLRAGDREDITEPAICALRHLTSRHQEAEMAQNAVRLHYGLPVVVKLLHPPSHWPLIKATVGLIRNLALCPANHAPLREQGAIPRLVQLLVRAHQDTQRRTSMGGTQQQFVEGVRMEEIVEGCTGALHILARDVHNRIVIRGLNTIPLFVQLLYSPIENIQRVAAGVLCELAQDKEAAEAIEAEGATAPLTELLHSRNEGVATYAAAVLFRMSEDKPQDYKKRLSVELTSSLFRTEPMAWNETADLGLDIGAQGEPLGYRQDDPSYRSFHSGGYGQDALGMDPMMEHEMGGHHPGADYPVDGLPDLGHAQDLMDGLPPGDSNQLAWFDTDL

B1: wild-type human GBP1 with Flag fused in the N-terminal (protein, UniProt P32455 1-592)
chain: MASEIHMTGPMCLIENTNGRLMANPEALKILSAITQPMVVVAIVGLYRTGKSYLMNKLAGKKKGFSLGSTVQSHTKGIWMWCVPHPKKPGHILVLLDTEGLGDVEKGDNQNDSWIFALAVLLSSTFVYNSIGTINQQAMDQLYYVTELTHRIRSKSSPDENENEVEDSADFVSFFPDFVWTLRDFSLDLEADGQPLTPDEYLTYSLKLKKGTSQKDETFNLPRLCIRKFFPKKKCFVFDRPVHRRKLAQLEKLQDEELDPEFVQQVADFCSYIFSNSKTKTLSGGIQVNGPRLESLVLTYVNAISSGDLPCMENAVLALAQIENSAAVQKAIAHYEQQMGQKVQLPTETLQELLDLHRDSEREAIEVFIRSSFKDVDHLFQKELAAQLEKKRDDFCKQNQEASSDRCSALLQVIFSPLEEEVKAGIYSKPGGYRLFVQKLQDLKKKYYEEPRKGIQAEEILQTYLKSKESMTDAILQTDQTLTEKEKEIEVERVKAESAQASAKMLQEMQRKNEQMMEQKERSYQEHLKQLTEKMENDRVQLLKEQERTLALKLQEQEQLLKEGFQKESRIMKNEIQDLQTKMRRRKACTIS
B2: human GBP1 p.H150Y with Flag fused in the N-terminal (protein, UniProt P32455 1-592)
chain: B1 chain with H150Y
B3: human GBP1 p.L187P with Flag fused in the N-terminal (protein, UniProt P32455 1-592)
chain: B1 chain with L187P
B4: zebrafish β-catenin (protein, UniProt F1QGH7 1-780)
chain: MATQSDLMELEMAMDPDRKAAVSHWQQQSYLDSGIHSGATTTAPSLSGKGNPEDDDVDNQVLYEWEQGFNQSFNQEQVADIDGQYAMTRAQRVRAAMFPETLDEGMQIPSTQFDSAHPTNVQRLAEPSQMLKHAVVNLINYQDDAELATRAIPELTKLLNDEDQVVVNKAAVMVHQLSKKEASRHAIMRSPQMVSAIVRTMQNTNDVETARCTSGTLHNLSHHREGLLAIFKSGGIPALVKMLGSPVDSVLFYAITTLHNLLLHQEGAKMAVRLAGGLQKMVALLNKTNVKFLAITTDCLQILAYGNQESKLIILASGGPQALVNIMRTYTYEKLLWTTSRVLKVLSVCSSNKPAIVEAGGMQALGLHLTDPSQRLVQNCLWTLRNLSDAATKQEGMEGLLGTLVQLLGSDDINVVTCAAGILSNLTCNNYKNKMMVCQVGGIEALVRTVLRAGDREDITEPAICALRHLTSRHQDAEMAQNAVRLHYGLPVVVKLLHPPSHWPLIKATVGLIRNLALCPANHAPLREQGAIPRLVQLLVRAHQDTQRRTSMGGTQQQFVEGVRMEEIVEGCTGALHILARDIHNRIVIRGLNTIPLFVQLLYSPIENIQRVAAGVLCELAQDKEAAEAIEAEGATAPLTELLHSRNEGVATYAAAVLFRMSEDKPQDYKKRLSVELTSSLFRTEPMTWNETGDLGLDIGAQGEPLGYRQDDPSYRSFHSGGYGQDAMGMDPMMEHEMAGHHPGPDYPVDGLPDLGHTQDLIDGLPPGDSNQLAWFDTDL

Columns and labels:
[1] = target: β-catenin (human (endogenous in TPC1)) (UniProt P35222); experiment: co-IP; WT, mutated (p.H150Y, p.L187P) or truncated (p.E336fs) hGBP1 with β-catenin, TPC1 cells; which partner was precipitated is not told
[2] = target: T1, zebrafish E-cadherin (zebrafish (endogenous in zebrafish embryos)) (UniProt Q90Z37); experiment: proximity ligation; Duolink PLA in the thyroid primordium of 4-dpf Tg(tg:GFP) zebrafish embryos, WT and gbp1 morphants
T1 sequence: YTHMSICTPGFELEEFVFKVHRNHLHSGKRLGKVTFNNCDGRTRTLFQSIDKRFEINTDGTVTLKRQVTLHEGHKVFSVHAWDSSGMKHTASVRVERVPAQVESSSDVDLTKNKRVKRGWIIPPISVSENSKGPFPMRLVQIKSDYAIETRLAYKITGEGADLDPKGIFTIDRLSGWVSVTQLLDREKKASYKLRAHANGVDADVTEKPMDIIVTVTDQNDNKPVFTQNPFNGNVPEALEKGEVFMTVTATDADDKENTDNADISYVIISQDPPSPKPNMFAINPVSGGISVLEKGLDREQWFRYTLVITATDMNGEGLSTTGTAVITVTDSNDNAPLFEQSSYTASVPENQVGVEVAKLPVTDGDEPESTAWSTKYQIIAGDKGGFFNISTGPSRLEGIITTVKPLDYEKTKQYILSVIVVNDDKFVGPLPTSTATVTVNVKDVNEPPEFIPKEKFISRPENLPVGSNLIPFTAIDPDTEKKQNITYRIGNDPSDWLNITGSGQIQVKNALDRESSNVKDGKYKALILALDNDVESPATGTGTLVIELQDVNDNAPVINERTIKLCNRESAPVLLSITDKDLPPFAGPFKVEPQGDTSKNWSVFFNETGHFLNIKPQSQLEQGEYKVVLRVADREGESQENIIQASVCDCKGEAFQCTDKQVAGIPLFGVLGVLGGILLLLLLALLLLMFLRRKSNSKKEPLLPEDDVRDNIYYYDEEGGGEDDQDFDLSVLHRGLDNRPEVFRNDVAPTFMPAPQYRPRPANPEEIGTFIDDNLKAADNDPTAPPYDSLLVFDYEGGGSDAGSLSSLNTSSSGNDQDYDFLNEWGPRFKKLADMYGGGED

binding [1]	binding [2]	Binder
binds		B1
binds		B2
binds		B3
	binds	B4
